PubChem BioAssay AID1259264, Sanger Institute, 2017

Aim: 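Kinases whose loss cuts CL40 colorectal cancer cell survival, alone or with drugs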 (primary screen)
Cells: CL40 human colorectal cancer cells
Knock-down reagent: siRNA pool against human genes
Challenge: DMSO, or an anchor drug: BYL719 at 1 µM, cetuximab at 5 µg/ml, or trametinib at 10 nM
Read-out: 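Replicate-mean viability versus a non-targeting pool, robust z-score from control wells, and mean synergy with BYL719 1 µM, cetuximab 5 µg/ml or trametinib 10 nM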
Reading the numbers: robust z-score, siRNA alone and viability, siRNA alone: higher = more viable cells; synergy score with BYL719: higher = stronger combined killing with BYL719; synergy score with cetuximab: higher = stronger combined killing with cetuximab; synergy score with trametinib: higher = stronger combined killing with trametinib
Active means: 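a gene counts as essential when knock-down without drug gives a robust z-score below -3, meaning fewer cells; synergy scores play no part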
Calls: active = essential (lowers viability alone); inactive = not essential
The deposit covers 794 reagents; shown is a part drawn at random. Of all reagents, 15 (1.9%) are marked active. 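Calls rest on knock-down alone at z-score below -3; synergy scores with the three drugs do not decide them.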 Viability is capped at 1. The record does not give: the amount of reagent, the time to read-out.

no.	target gene	robust z-score, siRNA alone	viability, siRNA alone (fraction of control)	synergy score with BYL719	synergy score with cetuximab	synergy score with trametinib	Outcome
1	ERN1 (endoplasmic reticulum to nucleus signaling 1)	0.539	1	-0.0332	-0.0174	0.164	inactive
2	STK25 (serine/threonine kinase 25)	0.134	0.971	-0.125	0.122	0.0469	inactive
3	TP53 (tumor protein p53)	0.326	0.985	-0.0241	0.0146	0.195	inactive
4	EPHA1 (EPH receptor A1)	-1.56	0.85	-0.147	0.0378	0.0717	inactive
5	CAMKV (CaM kinase like vesicle associated)	-0.5	0.926	-0.0916	-0.0386	0.124	inactive
6	STK31 (serine/threonine kinase 31)	-0.101	0.954	-0.169	-0.0625	0.186	inactive
7	GSK3B (glycogen synthase kinase 3 beta)	0.436	0.993	-0.119	-0.0247	0.0257	inactive
8	PLK2 (polo like kinase 2)	-0.739	0.908	-0.00881	-0.0897	-0.0281	inactive
9	EPHA8 (EPH receptor A8)	0.4	0.99	-0.155	-0.0157	0.0171	inactive
10	KDR (kinase insert domain receptor)	0.539	1	-0.0285	-0.0174	0.00804	inactive
11	PKM (pyruvate kinase M1/2)	0.539	1	-0.0216	0.0723	0.0697	inactive
12	CASP8 (caspase 8)	0.539	1	-0.156	-0.0174	0.0762	inactive
13	TTK (TTK protein kinase)	-1.32	0.867	-0.126	-0.0288	-0.0981	inactive
14	DYRK3 (dual specificity tyrosine phosphorylation regulated kinase 3)	0.539	1	-0.153	0.0606	0.0773	inactive
15	DGKD (diacylglycerol kinase delta)	0.539	1	-0.107	0.0805	0.0331	inactive
16	MAGI3	0.539	1	-0.0342	0.0106	0.0662	inactive
17	PAPSS1 (3'-phosphoadenosine 5'-phosphosulfate synthase 1)	0.539	1	-0.153	-0.0174	0.0638	inactive
18	EFNA4 (ephrin A4)	0.539	1	-0.0349	-0.0174	0.123	inactive
19	WNK3 (WNK lysine deficient protein kinase 3)	0.539	1	-0.156	-0.0174	0.0941	inactive
20	ROCK1 (Rho associated coiled-coil containing protein kinase 1)	0.539	1	0.0399	0.0243	0.0182	inactive

3 entries already listed, sorted by “robust z-score, siRNA alone”, low to high.
target gene	robust z-score, siRNA alone	viability, siRNA alone (fraction of control)	synergy score with BYL719	synergy score with cetuximab	synergy score with trametinib	Outcome
DGKD (diacylglycerol kinase delta)	0.539	1	-0.107	0.0805	0.0331	inactive
MAGI3	0.539	1	-0.0342	0.0106	0.0662	inactive
PAPSS1 (3'-phosphoadenosine 5'-phosphosulfate synthase 1)	0.539	1	-0.153	-0.0174	0.0638	inactive
